For the assay, the target named is cyno PD-1 (cyno). Nature of the assay: FACS on CHO/cyno PD-1 cells.

Results are given in words; binding and its absence hold for the method and conditions named. A result given as binding can be weak or reduced; the word gives no strength.

B1: anti-PD1 antibody R1152 (antibody, human IgG1, kappa, L234A L235A, V domains shown)
VH: QVQLVQSGAEVKKPGASVKVSCKASGYTFTTYYMYWVRQAPGQGLEWMGGINPSNGGTNYAQKFQGRATMTVDTSTSTAYMELSSLRSEDTAVYYCTRRDSNYDGGFDYWGQGTTVTVSS
VL: DIQMTQSPSSLSASVGDRVTITCRASKSVSTSGYSYMHWYQQKPGKAPKLLIYLAYHLESGVPSRFSGSGSGTDFTLTISSLQPEDFATYYCQHSWELPITFGQGTKLEIKR
notes: also called PD1 monoclonal antibody R1152; PD-1 parent antibody
B1: the binding entry was “binds”.

(Values after patent EP4786499A1 (Guangdong Fapon Biopharma Inc., dated 2026).)
